Source: PubChem BioAssay AID1259254 (NCATS, 2017)
Aim: 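Gene knock-downs that lead to re-replication, shown by excess G2 DNA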 (primary screen). Cells: human HCT116 colorectal cancer cells. Reagent: single siRNA against human genes. Duration: 3 days. Read-out: 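Nuclei stained with Hoechst and imaged; cell-cycle phase assigned by DNA content; G2 share scaled per plate, non-targeting siRNA 0%, GMNN siRNA 100%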. Direction: G2 robust z-score and G2 cells, % of GMNN control: higher = more G2 cells, more excess DNA replication; raw share of cells in G2: higher = larger share of cells with G2 DNA content. Active means: 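Active siRNAs have a G2 robust z of 5 or more median absolute deviations over the median, which in these data means about 38% or higher of GMNN control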.
The whole screen tested about 59,000 reagents; this is a part drawn at random. Over the whole deposit, about 1,550 (2.6%) were called active. 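G2 share is only a proxy for re-replication; each gene was hit by three separate siRNAs, and active genes were retested.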 Raw values vary from plate to plate and are shown uncorrected. Entries without a mark were called inactive. Reagents against one gene are numbered here. Not given: the amount of reagent.

target	reagent	G2 robust z-score	G2 cells, % of GMNN control	raw share of cells in G2 (%)
HSPD1	1	2.9	23.4	12.7
HSPD1	2	-0.768	-2.43	3.71
HSPD1	3	0.242	4.67	4.8
LRRC42	1	0.115	3.78	5.61
LRRC42	2	-0.446	-0.173	3.28
LRRC42	3	-0.413	0.0596	1.84
TAGLN	1	0.452	6.15	7.75
TAGLN	2	0.538	6.75	6.19
TAGLN	3	1.33	12.4	8.78
SLC2A3	1	-0.679	-1.81	5.07
SLC2A3	2	1.42	13	8.99
SLC2A3	3	-0.67	-1.74	3.38
AADACL4	1	-0.17	1.77	4.59
AADACL4	2	1.25	11.7	8.39
AADACL4	3	-0.0184	2.84	5.33
SERPINB3	1	0.522	6.64	7.92
SERPINB3	2	-0.0609	2.54	5.42
SERPINB3	3	9.99 (active)	73.3	28.2
ZNF213	1	0.306	5.12	7.76
ZNF213	2	-0.592	-1.19	3.82
ZNF213	3	-0.819	-2.79	3.56
DYNLT1	1	-1.49	-7.5	2.4
DYNLT1	2	-0.893	-3.32	3.41
DYNLT1	3	-0.541	-0.841	3.87
LTV1	1	3.75	29.3	16.5
LTV1	2	6.11 (active)	45.9	17.4
LTV1	3	0.9	9.3	5.87
BHLHA15	1	0.7	7.89	7.59
BHLHA15	2	-0.931	-3.59	4.25
BHLHA15	3	0.0369	3.23	6.06
MTX2	1	-0.0317	2.74	6.06
MTX2	2	0.905	9.34	7.99
MTX2	3	1.15	11	7.31
C1QA	1	-0.242	1.26	5.89
C1QA	2	-0.12	2.12	4.86
C1QA	3	3.7	29	14.9
CTSF	1	-0.522	-0.704	5.31
CTSF	2	-0.527	-0.742	4.64
CTSF	3	-0.0416	2.67	4.91
TAS2R9	1	-0.566	-1.01	3.47
TAS2R9	2	0.937	9.56	8.17
TAS2R9	3	-0.289	0.934	3.55
SPMIP2	1	-0.617	-1.37	3.37
SPMIP2	2	-0.144	1.95	3.52
SPMIP2	3	0.393	5.73	5.07
MARS1	1	0.459	6.2	7.76
MARS1	2	2.74	22.2	10.5
MARS1	3	9.87 (active)	72.4	34.2
FGF7	1	0.16	4.09	7.22
FGF7	2	0.57	6.98	6.64
FGF7	3	1.13	10.9	7.79
RAB33B	1	-0.176	1.73	4.82
RAB33B	2	0.466	6.24	8.03
RAB33B	3	-0.0596	2.55	5.73
WNT9B	1	1.7	14.9	11.7
WNT9B	2	0.247	4.71	5.76
WNT9B	3	-0.875	-3.19	2.22
RIMS3	1	-1.22	-5.61	2.79
RIMS3	2	0.457	6.18	6.52
RIMS3	3	-0.541	-0.841	3.1
CLTB	1	0.783	8.48	7.99
CLTB	2	1.7	14.9	10.4
CLTB	3	-0.247	1.23	4.52
CCDC9	1	2.1	17.7	11.1
CCDC9	2	-0.0322	2.74	5.13
CCDC9	3	-0.667	-1.72	2.7
GTF3C5	1	-0.539	-0.824	4.41
GTF3C5	2	-0.529	-0.756	5
GTF3C5	3	1.64	14.5	11.1

Records above whose target name starts with L or l (6):
target	reagent	G2 robust z-score	G2 cells, % of GMNN control	raw share of cells in G2 (%)
LRRC42	1	0.115	3.78	5.61
LRRC42	2	-0.446	-0.173	3.28
LRRC42	3	-0.413	0.0596	1.84
LTV1	1	3.75	29.3	16.5
LTV1	2	6.11 (active)	45.9	17.4
LTV1	3	0.9	9.3	5.87
